Reference: the supplement of paper PMC10849652
The other results are listed elsewhere or left out. Residues, ends and D or L forms follow the SMILES beside them. *: point of attachment. Cbz = O=C(OCc1ccccc1)*

Sequences of proteins named here, by UniProt entry; tags and fusion partners are left off. A change or cut given only in a name is not applied to a line headed by its entry.
UniProt Q9Y6J0: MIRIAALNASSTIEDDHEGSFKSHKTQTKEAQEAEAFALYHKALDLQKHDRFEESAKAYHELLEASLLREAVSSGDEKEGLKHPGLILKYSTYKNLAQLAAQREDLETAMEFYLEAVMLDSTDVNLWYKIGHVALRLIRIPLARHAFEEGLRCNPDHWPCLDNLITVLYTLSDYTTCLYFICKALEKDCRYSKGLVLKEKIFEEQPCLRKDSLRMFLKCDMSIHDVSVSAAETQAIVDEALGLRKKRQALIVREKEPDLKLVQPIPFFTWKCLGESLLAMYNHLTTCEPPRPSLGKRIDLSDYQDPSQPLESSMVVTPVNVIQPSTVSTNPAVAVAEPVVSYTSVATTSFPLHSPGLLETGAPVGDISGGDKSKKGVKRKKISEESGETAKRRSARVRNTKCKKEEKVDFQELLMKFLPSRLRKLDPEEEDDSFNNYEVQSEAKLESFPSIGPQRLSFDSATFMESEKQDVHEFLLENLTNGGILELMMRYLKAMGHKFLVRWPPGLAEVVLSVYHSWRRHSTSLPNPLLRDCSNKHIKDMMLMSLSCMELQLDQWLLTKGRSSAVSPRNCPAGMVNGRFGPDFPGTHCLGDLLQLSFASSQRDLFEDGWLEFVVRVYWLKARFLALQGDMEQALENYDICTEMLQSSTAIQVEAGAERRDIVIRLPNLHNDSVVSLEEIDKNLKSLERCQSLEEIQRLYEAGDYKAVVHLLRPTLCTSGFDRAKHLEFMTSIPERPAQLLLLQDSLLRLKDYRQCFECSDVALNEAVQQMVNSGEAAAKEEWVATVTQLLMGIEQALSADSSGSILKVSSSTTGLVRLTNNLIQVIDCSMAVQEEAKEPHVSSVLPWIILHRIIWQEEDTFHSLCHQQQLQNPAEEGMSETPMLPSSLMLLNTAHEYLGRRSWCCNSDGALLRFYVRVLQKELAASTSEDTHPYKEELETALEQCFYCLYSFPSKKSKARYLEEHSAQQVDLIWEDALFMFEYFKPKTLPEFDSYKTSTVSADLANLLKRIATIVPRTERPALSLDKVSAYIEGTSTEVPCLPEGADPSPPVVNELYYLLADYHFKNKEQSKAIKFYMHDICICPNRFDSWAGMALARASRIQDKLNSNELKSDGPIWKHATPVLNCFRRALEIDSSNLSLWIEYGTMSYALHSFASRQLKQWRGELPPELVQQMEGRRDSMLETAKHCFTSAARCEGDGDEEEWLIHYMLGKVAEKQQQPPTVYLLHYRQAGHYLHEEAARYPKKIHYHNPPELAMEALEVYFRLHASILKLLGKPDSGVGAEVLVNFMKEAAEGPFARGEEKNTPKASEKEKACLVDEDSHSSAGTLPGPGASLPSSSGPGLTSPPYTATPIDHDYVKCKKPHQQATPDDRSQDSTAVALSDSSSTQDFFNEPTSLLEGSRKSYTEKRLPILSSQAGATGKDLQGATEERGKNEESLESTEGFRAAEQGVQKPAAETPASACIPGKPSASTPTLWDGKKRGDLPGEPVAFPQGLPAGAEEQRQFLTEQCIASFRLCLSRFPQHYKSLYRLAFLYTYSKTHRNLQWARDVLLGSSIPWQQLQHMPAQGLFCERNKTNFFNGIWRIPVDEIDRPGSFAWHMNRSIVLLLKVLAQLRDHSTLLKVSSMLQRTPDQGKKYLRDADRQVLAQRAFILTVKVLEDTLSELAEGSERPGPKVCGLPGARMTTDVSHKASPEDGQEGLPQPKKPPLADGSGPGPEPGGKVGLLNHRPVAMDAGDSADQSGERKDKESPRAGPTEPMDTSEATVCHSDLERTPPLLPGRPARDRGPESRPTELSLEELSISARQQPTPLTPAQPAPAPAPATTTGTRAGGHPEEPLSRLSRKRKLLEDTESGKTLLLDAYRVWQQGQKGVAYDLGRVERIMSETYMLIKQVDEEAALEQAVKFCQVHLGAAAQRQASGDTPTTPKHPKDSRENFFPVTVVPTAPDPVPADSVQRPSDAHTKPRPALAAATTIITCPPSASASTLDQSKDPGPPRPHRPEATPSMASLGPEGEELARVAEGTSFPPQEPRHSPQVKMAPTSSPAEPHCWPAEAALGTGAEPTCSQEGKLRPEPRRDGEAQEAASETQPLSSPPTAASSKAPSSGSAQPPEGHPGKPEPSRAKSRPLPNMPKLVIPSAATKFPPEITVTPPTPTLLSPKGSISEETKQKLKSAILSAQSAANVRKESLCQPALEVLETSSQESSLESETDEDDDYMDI
UniProt Q9H257: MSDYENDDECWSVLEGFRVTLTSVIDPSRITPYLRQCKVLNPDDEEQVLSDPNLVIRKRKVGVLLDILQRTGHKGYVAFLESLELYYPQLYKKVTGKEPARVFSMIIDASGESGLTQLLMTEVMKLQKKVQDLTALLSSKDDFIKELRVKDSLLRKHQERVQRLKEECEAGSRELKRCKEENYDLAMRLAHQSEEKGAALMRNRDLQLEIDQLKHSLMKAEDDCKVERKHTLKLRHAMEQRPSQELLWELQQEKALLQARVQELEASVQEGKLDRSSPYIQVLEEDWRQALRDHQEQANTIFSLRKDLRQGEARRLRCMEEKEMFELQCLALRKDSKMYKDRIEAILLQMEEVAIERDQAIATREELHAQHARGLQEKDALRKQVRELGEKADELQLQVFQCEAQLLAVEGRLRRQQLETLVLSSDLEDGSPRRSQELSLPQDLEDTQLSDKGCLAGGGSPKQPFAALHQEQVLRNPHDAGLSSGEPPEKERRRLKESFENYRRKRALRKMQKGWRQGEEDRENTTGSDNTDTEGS
UniProt Q06187: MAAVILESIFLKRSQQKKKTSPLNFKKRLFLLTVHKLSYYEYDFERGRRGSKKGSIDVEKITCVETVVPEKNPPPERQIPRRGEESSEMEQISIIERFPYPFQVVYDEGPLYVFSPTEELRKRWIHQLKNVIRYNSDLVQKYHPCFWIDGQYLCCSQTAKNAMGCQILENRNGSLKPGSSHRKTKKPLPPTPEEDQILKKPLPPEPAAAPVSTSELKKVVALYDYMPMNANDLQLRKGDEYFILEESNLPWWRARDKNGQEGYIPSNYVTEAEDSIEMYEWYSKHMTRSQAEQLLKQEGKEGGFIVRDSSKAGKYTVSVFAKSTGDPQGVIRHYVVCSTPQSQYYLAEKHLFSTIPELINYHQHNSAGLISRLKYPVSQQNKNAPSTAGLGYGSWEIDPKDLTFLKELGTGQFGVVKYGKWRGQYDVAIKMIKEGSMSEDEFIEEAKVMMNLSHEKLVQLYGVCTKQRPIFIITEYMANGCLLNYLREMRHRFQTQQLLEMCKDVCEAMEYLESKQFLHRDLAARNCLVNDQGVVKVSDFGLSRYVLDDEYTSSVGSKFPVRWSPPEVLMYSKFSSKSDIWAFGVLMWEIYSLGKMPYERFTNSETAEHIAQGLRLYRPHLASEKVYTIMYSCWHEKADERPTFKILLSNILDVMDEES
UniProt Q9H3J6: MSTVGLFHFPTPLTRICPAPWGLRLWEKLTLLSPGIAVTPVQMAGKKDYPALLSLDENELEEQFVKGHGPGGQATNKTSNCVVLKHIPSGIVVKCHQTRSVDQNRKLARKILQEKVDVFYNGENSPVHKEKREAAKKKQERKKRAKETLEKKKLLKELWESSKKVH
UniProt Q3KRA6: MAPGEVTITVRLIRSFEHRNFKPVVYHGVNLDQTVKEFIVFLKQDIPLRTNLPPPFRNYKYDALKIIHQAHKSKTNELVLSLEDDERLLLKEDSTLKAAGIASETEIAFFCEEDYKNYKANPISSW
UniProt Q5BKX5: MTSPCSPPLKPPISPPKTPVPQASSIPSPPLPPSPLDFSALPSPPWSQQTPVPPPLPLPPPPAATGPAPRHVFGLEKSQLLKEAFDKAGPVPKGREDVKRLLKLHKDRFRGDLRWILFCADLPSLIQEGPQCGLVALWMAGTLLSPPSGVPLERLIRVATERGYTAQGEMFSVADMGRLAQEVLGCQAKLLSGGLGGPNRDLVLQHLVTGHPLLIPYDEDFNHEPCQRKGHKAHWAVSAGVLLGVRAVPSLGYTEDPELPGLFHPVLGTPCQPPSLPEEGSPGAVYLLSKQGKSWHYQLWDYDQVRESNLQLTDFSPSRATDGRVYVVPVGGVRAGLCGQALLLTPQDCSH
UniProt P04003: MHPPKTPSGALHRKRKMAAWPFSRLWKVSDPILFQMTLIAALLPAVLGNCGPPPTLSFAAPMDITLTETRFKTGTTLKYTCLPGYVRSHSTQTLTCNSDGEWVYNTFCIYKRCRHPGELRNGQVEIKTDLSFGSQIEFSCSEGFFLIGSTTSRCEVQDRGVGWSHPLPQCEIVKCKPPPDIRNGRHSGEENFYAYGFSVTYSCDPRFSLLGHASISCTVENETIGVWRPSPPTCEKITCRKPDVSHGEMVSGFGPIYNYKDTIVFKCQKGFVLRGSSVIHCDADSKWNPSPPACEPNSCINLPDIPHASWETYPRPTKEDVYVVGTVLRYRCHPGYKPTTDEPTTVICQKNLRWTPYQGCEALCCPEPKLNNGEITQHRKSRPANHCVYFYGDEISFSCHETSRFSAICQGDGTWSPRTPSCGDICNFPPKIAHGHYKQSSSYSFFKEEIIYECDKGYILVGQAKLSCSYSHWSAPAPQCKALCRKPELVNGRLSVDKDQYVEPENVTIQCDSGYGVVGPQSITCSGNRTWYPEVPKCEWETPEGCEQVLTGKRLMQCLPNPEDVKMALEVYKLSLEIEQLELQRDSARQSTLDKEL
UniProt Q9BRD0: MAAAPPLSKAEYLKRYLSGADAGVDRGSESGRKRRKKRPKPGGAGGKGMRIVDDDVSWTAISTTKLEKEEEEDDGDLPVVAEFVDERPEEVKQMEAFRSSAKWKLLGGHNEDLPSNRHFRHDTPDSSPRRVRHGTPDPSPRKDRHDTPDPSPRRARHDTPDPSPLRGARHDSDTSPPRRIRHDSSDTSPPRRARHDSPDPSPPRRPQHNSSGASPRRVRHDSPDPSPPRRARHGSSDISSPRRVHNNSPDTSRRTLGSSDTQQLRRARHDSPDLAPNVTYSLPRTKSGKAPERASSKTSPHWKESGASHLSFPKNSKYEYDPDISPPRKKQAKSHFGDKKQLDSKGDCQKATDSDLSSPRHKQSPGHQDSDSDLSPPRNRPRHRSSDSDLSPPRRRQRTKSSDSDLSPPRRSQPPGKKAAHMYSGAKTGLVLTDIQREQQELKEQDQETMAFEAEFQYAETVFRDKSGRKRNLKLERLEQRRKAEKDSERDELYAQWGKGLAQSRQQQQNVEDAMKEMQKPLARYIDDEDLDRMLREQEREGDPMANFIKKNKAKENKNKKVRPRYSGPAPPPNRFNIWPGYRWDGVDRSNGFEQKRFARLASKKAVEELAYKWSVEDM
UniProt Q5U649: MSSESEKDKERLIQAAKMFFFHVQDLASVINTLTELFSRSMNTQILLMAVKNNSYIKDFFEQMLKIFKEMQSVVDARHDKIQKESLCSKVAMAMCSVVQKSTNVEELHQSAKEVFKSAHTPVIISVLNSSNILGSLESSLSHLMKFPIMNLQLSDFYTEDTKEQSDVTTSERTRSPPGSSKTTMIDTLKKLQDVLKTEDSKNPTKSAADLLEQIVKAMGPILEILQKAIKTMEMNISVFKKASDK
UniProt Q05682: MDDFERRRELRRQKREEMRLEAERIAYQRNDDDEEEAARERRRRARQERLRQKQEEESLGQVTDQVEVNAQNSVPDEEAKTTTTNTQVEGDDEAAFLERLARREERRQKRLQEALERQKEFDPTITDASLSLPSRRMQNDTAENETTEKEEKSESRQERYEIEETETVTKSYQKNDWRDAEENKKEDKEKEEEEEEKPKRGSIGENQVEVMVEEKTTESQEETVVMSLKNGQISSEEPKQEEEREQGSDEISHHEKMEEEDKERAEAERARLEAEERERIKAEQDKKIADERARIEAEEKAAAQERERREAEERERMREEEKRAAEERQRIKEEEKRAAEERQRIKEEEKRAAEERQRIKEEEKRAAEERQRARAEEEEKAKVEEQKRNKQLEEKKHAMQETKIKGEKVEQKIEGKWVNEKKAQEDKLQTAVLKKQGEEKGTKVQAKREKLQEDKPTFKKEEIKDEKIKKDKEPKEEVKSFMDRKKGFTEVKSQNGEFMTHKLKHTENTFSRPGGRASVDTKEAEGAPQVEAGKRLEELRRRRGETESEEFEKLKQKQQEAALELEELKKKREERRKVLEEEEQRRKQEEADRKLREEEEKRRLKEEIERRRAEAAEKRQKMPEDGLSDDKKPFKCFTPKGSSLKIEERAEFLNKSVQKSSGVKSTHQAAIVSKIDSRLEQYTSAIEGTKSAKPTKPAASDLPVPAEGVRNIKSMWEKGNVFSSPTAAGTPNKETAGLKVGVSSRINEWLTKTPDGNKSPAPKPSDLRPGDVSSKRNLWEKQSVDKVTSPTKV
UniProt Q7Z4R8: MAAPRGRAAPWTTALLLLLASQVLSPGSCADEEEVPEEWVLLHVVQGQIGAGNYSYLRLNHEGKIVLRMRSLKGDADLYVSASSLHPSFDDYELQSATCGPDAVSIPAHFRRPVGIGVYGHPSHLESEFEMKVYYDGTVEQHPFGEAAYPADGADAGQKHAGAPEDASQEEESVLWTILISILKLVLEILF

Assays:
Assay in all cases: log2 fold change, soluble protein after heating vs DMSO (PISA); higher = thermal stabilisation; K562 cells, 10 uM, 30 min; active = over 0.2 and 3.5 SD of the protein, either way, in both replicates (recomputed)
erlotinib = compound: C#Cc1cccc(Nc2ncnc3cc(OCCOC)c(OCCOC)cc23)c1 [erlotinib]
Method in brief: (§1)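 Soluble protein was quantified by TMTpro 16plex LC-MS/MS after channel sums were equalised. It was obtained as the supernatant after 21,000xg for 90 min from pooled aliquots of K562 cells (2×10^6 cells/mL, 10 μM compound, 30 min) heated for 3 min across 48°C-58°C and extracted in PBS with 0.5% NP-40 at 4°C. Thermal stability values are relative to control samples and come from duplicates. They are given as log2 fold changes.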

[1] = compound: C1=CC(=CC=C1C2=NC3=C(N2)C=C(C=C3)C(=O)N)OC4=CC=C(C=C4)Cl
Method in brief: as §1

[2] = compound: CC(C)C1=C2N=C(C=C(N2N=C1)NCC3=CC=CC=C3)NCCCCCCN
Method in brief: as §1

[3] = compound: C/C(=N\NC(=O)C1=CC(=CC=C1)S(=O)(=O)N2CCOCC2)/C3=C(C=CC(=C3)Cl)O
Method in brief: as §1

[4] = compound: C1=CC2=C(C=CC(=C2)/C=C\3/C(=O)NC(=NCC4=CC=CS4)S3)N=C1
Method in brief: as §1

[5] = compound: C1=CC=C(C=C1)C2=NC(=C(N2)C3=CC=NC=C3)C4=CC(=C(C=C4)Cl)O
Method in brief: as §1

[6] = compound: C1=CC=C2C(=C1)C3=NNC4=CC=CC(=C43)C2=O
Method in brief: as §1

IRAK-1-4 Inhibitor I = compound: C1COCCN1CCN2C3=CC=CC=C3N=C2NC(=O)C4=CC(=CC=C4)[N+](=O)[O-] [IRAK-1-4 Inhibitor I]
Method in brief: as §1

[7] = compound: CC(=O)c1cnc2ccc(-c3cc(Cl)c(O)c(Cl)c3)nc2c1N[C@H]1CC[C@H](CN(C)C)CC1
Method in brief: as §1

ralimetinib = compound: CC(C)(C)Cn1c(N)nc2ccc(-c3[nH]c(C(C)(C)C)nc3-c3ccc(F)cc3)nc21 [ralimetinib]
Method in brief: as §1

[8] = compound: CC(C)C[C@@H](C=O)NC(=O)[C@H](CC(C)C)NC(=O)[C@H](CC(C)C)NC(=O)OCc1ccccc1
Method in brief: as §1

pinometostat = compound: CC(C)N(C[C@H]1O[C@@H](n2cnc3c(N)ncnc32)[C@H](O)[C@@H]1O)[C@H]1C[C@@H](CCc2nc3cc(C(C)(C)C)ccc3[nH]2)C1 [pinometostat]
Method in brief: as §1

[9] = compound: C1=CC(=C(C=C1Cl)C2=NC3=NC=CN=C3C(=N2)NC4=CC=NC=C4)F
Method in brief: as §1

[10] = compound: C1=CC2=NC=CN=C2C=C1/C=C/3\C(=O)NC(=O)S3
Method in brief: as §1

[11] = compound: C1CCN(C1)C(=O)NC2=CC=CC(=C2)NC3=NC=C(C(=N3)NCCC4=CN=CN4)Br
Method in brief: as §1

[12] = compound: C1CN(CCC1(CC2=CC=C(C=C2)Cl)N)C3=NC=NC4=C3C=CN4
Method in brief: as §1

ibrutinib = compound: C=CC(=O)N1CCC[C@@H](n2nc(-c3ccc(Oc4ccccc4)cc3)c3c(N)ncnc32)C1 [ibrutinib]
Method in brief: as §1

[13] = compound: CC(C)(O)CC(=O)NCCn1ccc2ncnc(Nc3ccc(Oc4cccc(C(F)(F)F)c4)c(Cl)c3)c21
Method in brief: as §1

[14] = compound: CC1=C(C(CC(=O)N1)C2=CC=C(C=C2)C(F)(F)F)C(=O)NC3=C(C=C4C(=C3)C=NN4)F
Method in brief: as §1

[15] = compound: CC1=C(C2=C(C=C1)C(=O)C3=CC=CC=C3N2CCCN)C
Method in brief: as §1

Measured: log2 fold change

CABIN1 (UniProt Q9Y6J0)
inactive: erlotinib -0.006 | [1] -0.16 | [2] 0.23

CARD9 (UniProt Q9H257)
inactive: erlotinib -0.173 | [3] 0.211 | [1] 0.056 | [4] -0.184 | [5] 0.129 | [6] -0.058 | IRAK-1-4 Inhibitor I -0.181 | [7] -0.255 | ralimetinib 0.15 | [2] 0.071 | [8] 0.178 | pinometostat 0.202

C12orf73 (UniProt Q69YU5)
inactive: erlotinib -0.081 | [9] 0.178 | [1] -0.049 | [10] 0.098 | [5] 0.003 | [11] 0.057 | [12] 0.033 | IRAK-1-4 Inhibitor I 0.008 | ibrutinib 0.035 | ralimetinib -0.067 | [13] -0.2 | [2] 0.064 | [8] -0.051 | pinometostat -0.034 | [14] 0.026 | [15] 0.039

BTK isoform 2 (UniProt Q06187)
inactive: erlotinib 0.038 | [3] -0.106 | [9] -0.387 | [1] -0.109 | [4] 0.01 | [5] -0.065 | [6] 0.032 | [11] -0.012 | [12] -0.03 | IRAK-1-4 Inhibitor I -0.125 | [7] -0.125 | ralimetinib 0.197 | [13] -0.011 | [2] -0.295 | [8] 0.211 | pinometostat 0.512 | [14] -0.073 | [15] -0.068

C12orf65 (UniProt Q9H3J6)
inactive: erlotinib -0.065 | [3] -0.168 | [1] 0.051 | [4] -0.159 | [10] -0.069 | [5] -0.004 | [6] 0.003 | IRAK-1-4 Inhibitor I 0.016 | ibrutinib 0.16 | [7] 0.101 | ralimetinib 0.295 | [2] 0.074 | [8] -0.052 | pinometostat 0.162 | [14] 0.007

CAPNS1 (UniProt U3KPR7)
inactive: erlotinib -0.092 | [3] 0.084 | [1] -0.136 | [4] -0.138 | [6] 0.373 | [7] 0.118 | [2] 0.349

C2orf76 (UniProt Q3KRA6)
inactive: erlotinib 0.06 | [3] -0.13 | [1] -0.117 | [4] 0.316 | [10] -0.123 | [6] 0.242 | [11] -0.122 | [12] 0.059 | ibrutinib -0.045 | [7] 0.088 | [2] -0.114 | [15] 0.102

C1orf167 isoform 2 (UniProt Q5SNV9)
inactive: erlotinib 0.089 | [9] -0.088 | [1] 0.037 | [10] 0.158 | IRAK-1-4 Inhibitor I 0.015 | ibrutinib -0.252 | [13] -0.044 | [2] -0.024 | pinometostat -0.035 | [14] 0.019

C6orf136 isoform 4 (UniProt Q5SQH8)
inactive: erlotinib 0.08 | [3] 0.117 | [1] -0.078 | [4] 0.068 | [10] -0.613 | [5] -0.02 | [6] -0.049 | [11] -0.041 | [12] 0.151 | IRAK-1-4 Inhibitor I 0.038 | ibrutinib 0.467 | [7] -0.048 | ralimetinib 0.025 | [2] 0.186 | [8] -0.069 | pinometostat 0.051 | [14] -0.207 | [15] 0.141

C7 (UniProt P10643)
inactive: erlotinib -0.166 | [3] -0.068 | [9] -0.091 | [1] 0.108 | [4] 0.367 | [10] -0.08 | [6] -0.407 | [11] -0.091 | [12] 0.205 | IRAK-1-4 Inhibitor I -0.012 | ibrutinib 0.386 | [7] -0.007 | [13] 0.26 | [2] 0.122 | pinometostat 0.15 | [14] 0.04 | [15] -0.238

C19orf54 (UniProt Q5BKX5)
active: [12] -0.543
inactive: erlotinib -0.094 | [3] -0.054 | [9] 0.024 | [1] 0.008 | [4] -0.005 | [5] -0.024 | [6] 0.026 | [11] -0.027 | IRAK-1-4 Inhibitor I 0.008 | [7] 0.045 | ralimetinib 0.019 | [13] -0.003 | [2] -0.022 | [8] 0.08 | pinometostat -0.016 | [15] -0.054

CALCOCO1 (UniProt Q9P1Z2)
inactive: erlotinib 0.026 | [9] 0.009 | [1] 0.001 | [10] 0.119 | [5] 0.061 | [11] 0.131 | [12] 0.076 | IRAK-1-4 Inhibitor I 0.095 | ibrutinib -0.017 | ralimetinib 0.067 | [13] 0.031 | [2] -0.064 | [8] 0.098 | pinometostat -0.065 | [14] 0.049 | [15] -0.031

C11orf74 (UniProt Q86VG3)
inactive: erlotinib 0.112 | [9] -0.01 | [1] 0.143 | [11] -0.064 | [12] -0.001 | IRAK-1-4 Inhibitor I 0.238 | [13] -0.018 | [2] 0.06 | pinometostat 0 | [14] -0.118 | [15] -0.231

C4BPA (UniProt P04003)
inactive: erlotinib 0.11 | [3] -0.172 | [9] -0.062 | [1] -0.261 | [4] 0.162 | [10] -0.117 | [6] 0 | [11] -0.246 | [12] 0.048 | IRAK-1-4 Inhibitor I -0.134 | ibrutinib 0.389 | [7] -0.116 | [13] 0.276 | [2] 0.49 | pinometostat 0.171 | [14] -0.312 | [15] -0.067

CACTIN isoform 2 (UniProt Q8WUQ7)
inactive: erlotinib 0.054 | [3] -0.094 | [9] -0.054 | [1] 0.072 | [4] 0.009 | [10] -0.196 | [6] 0.034 | [11] -0.056 | [12] -0.1 | IRAK-1-4 Inhibitor I -0.088 | ibrutinib -0.021 | [7] -0.311 | [13] -0.032 | [2] -0.123 | pinometostat 0.038 | [14] -0.171 | [15] 0.281

BTD isoform 3 (UniProt P43251)
inactive: erlotinib 0.02 | [9] 0.065 | [1] 0.018 | [10] 0.046 | [5] -0.021 | [11] 0.066 | [12] 0.062 | IRAK-1-4 Inhibitor I -0.023 | ibrutinib 0.054 | ralimetinib -0.009 | [13] 0 | [2] 0.046 | [8] 0.02 | pinometostat -0.028 | [14] -0.071 | [15] -0.049

BUD13 (UniProt Q9BRD0)
inactive: erlotinib 0.001 | [3] -0.181 | [9] -0.423 | [1] -0.083 | [4] 0.06 | [5] -0.143 | [6] -0.011 | [11] 0.033 | [12] 0.036 | IRAK-1-4 Inhibitor I -0.164 | [7] -0.207 | ralimetinib 0.155 | [13] 0.122 | [2] -0.039 | [8] 0.176 | pinometostat 0.144 | [14] 0.002 | [15] -0.199

BTN2A1 (UniProt Q7KYR7)
inactive: erlotinib 0.002 | [9] -0.26 | [1] -0.045 | [10] 0.177 | [5] 0.02 | [11] -0.079 | [12] 0.035 | IRAK-1-4 Inhibitor I 0.072 | ibrutinib 0.107 | ralimetinib 0.051 | [13] 0.008 | [2] 0.052 | [8] 0.026 | pinometostat 0.025 | [14] 0.051 | [15] -0.046

C12orf60 (UniProt Q5U649)
inactive: erlotinib -0.017 | [9] -0.248 | [1] -0.125 | [10] 0.261 | [11] -0.062 | [12] -0.141 | ibrutinib -0.264 | [13] -0.511 | [2] -0.289 | [15] 0

CALD1 (UniProt Q05682)
inactive: erlotinib -0.224 | [9] 0.085 | [1] 0.2 | [5] 0.073 | IRAK-1-4 Inhibitor I -0.044 | ralimetinib -0.051 | [13] -0.002 | [2] -0.41 | [8] -0.183 | pinometostat 0.201

CAPN15 (UniProt O75808)
inactive: erlotinib 0.109 | [9] 0.186 | [1] 0.001 | [10] 0.167 | ibrutinib -0.079 | [13] 0.058 | [2] -0.143

C6orf120 (UniProt Q7Z4R8)
inactive: erlotinib -0.2 | [1] 0.134 | [10] -0.003 | [5] -0.009 | [11] 0.005 | [12] 0.028 | IRAK-1-4 Inhibitor I 0.116 | ibrutinib -0.003 | ralimetinib 0.015 | [2] -0.19 | [8] -0.003 | pinometostat -0.023 | [15] 0.002
